Results are given in words; binding and its absence hold for the method and conditions named. In cells and extracts the contact can be indirect. Here binding means that the protein was enriched with, or labelled near, the bait; the list need not be complete. Where a sequence is shown, tags or fusion partners need not be part of it.

Chains of the proteins cited; added tags and fusions are not shown.
UniProt E9Q6R7: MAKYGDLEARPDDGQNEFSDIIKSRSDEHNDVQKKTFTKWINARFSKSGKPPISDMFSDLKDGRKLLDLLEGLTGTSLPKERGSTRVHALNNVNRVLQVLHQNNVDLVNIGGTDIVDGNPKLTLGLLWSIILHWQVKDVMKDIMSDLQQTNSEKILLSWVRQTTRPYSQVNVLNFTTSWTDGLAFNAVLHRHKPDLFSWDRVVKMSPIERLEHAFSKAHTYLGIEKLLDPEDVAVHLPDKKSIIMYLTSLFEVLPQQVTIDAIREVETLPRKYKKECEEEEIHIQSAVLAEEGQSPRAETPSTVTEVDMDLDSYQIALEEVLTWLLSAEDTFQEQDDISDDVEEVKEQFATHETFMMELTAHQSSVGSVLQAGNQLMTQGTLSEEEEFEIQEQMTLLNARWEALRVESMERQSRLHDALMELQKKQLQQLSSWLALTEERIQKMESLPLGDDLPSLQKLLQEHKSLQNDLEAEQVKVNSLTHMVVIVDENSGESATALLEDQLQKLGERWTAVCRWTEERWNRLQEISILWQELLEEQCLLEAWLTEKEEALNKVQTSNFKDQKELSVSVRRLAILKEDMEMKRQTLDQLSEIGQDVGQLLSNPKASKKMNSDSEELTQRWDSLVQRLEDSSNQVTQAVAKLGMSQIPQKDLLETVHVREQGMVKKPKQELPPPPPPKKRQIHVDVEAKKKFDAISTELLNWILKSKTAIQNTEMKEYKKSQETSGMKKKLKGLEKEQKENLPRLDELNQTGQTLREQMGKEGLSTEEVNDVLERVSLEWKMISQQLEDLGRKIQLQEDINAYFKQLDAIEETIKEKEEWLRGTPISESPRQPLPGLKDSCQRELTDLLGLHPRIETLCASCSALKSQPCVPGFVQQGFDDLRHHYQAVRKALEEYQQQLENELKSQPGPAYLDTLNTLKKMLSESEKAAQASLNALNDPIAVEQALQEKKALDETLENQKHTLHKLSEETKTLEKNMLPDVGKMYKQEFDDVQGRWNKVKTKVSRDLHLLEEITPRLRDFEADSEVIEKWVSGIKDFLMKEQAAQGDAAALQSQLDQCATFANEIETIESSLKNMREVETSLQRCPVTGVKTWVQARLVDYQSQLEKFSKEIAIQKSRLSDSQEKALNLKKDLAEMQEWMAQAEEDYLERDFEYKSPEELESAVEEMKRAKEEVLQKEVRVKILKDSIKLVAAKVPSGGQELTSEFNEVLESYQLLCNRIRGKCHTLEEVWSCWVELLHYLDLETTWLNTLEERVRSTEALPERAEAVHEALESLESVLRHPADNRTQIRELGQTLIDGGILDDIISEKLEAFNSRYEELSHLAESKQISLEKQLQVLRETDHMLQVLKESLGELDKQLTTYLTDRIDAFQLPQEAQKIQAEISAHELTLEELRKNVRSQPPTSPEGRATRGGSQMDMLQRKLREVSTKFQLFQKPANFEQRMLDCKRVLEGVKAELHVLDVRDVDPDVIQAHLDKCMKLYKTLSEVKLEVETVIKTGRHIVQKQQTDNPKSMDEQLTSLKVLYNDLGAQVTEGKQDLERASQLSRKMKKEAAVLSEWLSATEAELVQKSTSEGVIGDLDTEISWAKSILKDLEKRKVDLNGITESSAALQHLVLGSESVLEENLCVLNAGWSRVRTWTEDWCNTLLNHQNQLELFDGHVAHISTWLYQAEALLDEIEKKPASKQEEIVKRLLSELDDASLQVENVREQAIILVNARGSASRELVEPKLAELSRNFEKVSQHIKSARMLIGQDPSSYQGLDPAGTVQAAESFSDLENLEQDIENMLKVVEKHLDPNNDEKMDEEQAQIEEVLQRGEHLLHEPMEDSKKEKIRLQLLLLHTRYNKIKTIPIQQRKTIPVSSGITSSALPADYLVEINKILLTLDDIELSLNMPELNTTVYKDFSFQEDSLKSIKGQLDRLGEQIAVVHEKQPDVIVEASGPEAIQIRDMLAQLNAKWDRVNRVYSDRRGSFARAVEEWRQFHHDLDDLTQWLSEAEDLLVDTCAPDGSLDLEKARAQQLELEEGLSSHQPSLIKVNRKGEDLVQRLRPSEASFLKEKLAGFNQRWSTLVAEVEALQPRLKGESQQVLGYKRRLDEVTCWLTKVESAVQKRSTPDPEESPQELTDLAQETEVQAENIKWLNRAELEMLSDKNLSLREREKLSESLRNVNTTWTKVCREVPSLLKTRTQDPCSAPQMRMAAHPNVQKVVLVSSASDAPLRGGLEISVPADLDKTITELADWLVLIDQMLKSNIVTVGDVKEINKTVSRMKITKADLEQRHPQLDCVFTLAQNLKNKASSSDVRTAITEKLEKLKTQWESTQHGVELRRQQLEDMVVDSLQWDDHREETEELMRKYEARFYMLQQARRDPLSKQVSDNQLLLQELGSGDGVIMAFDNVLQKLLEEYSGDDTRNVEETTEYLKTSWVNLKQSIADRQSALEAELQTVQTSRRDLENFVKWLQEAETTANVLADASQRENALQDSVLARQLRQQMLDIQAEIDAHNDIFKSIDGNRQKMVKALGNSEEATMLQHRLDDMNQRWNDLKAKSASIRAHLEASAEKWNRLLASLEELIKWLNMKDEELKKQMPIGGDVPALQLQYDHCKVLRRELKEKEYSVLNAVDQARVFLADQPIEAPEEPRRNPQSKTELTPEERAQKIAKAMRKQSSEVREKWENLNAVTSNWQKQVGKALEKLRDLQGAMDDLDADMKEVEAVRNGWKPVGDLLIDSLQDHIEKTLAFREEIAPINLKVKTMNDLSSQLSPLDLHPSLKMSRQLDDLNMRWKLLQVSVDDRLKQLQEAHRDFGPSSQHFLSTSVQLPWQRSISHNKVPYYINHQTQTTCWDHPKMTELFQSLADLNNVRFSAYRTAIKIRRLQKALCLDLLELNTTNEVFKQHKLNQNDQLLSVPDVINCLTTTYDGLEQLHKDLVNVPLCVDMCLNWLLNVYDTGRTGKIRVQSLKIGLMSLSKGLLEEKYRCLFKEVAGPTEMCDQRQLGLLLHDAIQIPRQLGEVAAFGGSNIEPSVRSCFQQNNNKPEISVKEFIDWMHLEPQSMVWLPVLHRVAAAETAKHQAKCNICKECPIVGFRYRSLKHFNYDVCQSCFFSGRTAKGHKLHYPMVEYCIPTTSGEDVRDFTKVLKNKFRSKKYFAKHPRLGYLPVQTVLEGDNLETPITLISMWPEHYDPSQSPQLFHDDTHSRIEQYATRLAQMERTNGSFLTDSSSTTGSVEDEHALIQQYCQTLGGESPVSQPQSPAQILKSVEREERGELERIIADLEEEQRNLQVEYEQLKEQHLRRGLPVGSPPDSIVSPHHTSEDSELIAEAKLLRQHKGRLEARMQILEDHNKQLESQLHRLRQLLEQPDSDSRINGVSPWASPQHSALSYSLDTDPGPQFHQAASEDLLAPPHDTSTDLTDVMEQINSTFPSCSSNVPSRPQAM

The values below come from doi:10.1101/2024.05.23.595491 (bioRxiv, 2024).

In the assay the target is T1, TAP-tag-GFP-SH3BP2 (mouse) (UniProt Q06649).
T1 sequence: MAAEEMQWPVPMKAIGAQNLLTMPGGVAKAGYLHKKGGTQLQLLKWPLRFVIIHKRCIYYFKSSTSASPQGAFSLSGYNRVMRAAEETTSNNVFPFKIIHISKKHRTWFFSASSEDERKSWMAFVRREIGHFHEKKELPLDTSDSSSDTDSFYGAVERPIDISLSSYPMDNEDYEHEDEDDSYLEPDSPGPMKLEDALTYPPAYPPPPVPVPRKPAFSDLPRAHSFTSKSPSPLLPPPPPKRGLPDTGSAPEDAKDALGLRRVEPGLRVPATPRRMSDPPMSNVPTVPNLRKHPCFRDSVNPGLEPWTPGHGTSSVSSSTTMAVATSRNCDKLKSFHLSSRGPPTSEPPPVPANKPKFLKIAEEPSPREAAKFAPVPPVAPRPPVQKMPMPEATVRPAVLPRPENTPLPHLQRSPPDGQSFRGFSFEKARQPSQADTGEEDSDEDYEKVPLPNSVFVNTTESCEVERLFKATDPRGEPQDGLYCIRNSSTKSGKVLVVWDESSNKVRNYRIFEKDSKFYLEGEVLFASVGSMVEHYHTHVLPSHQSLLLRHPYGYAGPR
In words: affinity purification with mass spectrometry.
Consider dystrophin (from UniProt P11531 1-3678), for which the binding result is listed as “binds”. As for utrophin (from UniProt E9Q6R7 1-3430), the binding entry was “binds”. For the substance “α syntrophin (mouse (endogenous in C2C12))”, the binding entry was “binds”.
